No constants are given. Whether binding was seen depends on the method and setting. For part of these data: In cells and extracts the contact can be indirect. Some results given as binding are weak or reduced against the parent protein; the word gives no strength. For part of these data: Tags and fused reporters may be left off the sequences shown. Each block holds one molecule with its values, some of them ahead of it.
Legend:
[1] = biological target: T1, Flag-tagged MYLK4 (myosin light chain kinase family member 4) in 143B cells (human) (UniProt Q86YV6); assay: co-IP; 143B cells stably expressing MYLK4-FLAG; NP40 lysate, 1 μg antibody or IgG per 500 μg total protein, Protein G beads overnight at 4 °C; immunoblot
T1 sequence: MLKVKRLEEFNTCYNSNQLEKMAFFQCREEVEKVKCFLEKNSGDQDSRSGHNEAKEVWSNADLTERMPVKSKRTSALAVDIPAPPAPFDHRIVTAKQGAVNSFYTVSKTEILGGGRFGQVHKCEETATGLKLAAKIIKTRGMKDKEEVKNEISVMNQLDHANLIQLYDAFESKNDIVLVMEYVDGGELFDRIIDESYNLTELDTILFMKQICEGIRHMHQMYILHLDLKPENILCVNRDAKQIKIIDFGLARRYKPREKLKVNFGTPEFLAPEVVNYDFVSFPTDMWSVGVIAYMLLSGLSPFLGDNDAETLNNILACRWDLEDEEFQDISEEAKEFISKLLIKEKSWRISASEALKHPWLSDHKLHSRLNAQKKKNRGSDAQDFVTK

[2] = biological target: T2, Myosin light chain kinase family member 4 (MYLK4), endogenous in 143B cells (human (endogenous in 143B)) (UniProt Q86YV6); assay: co-IP; endogenous proteins in 143B cells, reciprocal; NP40 lysate, 1 μg antibody or IgG per 500 μg total protein, Protein G beads overnight at 4 °C; immunoblot
T2 sequence: T1 sequence

[3] = biological target: T3, Flag-tagged MYLK4 in HEK-293T cells (human) (UniProt Q86YV6); assay: co-IP; HEK-293T cells cotransfected with Flag-tagged MYLK4 and HIS-tagged EGFR, reciprocal; NP40 lysate, Protein G beads overnight at 4 °C; immunoblot
T3 sequence: T1 sequence

[4] = biological target: Epidermal growth factor receptor (EGFR), endogenous in 143B cells (human (endogenous in 143B)) (UniProt P00533); assay: co-IP; endogenous proteins in 143B cells, reciprocal; NP40 lysate, 1 μg antibody or IgG per 500 μg total protein, Protein G beads overnight at 4 °C; immunoblot
[5] = biological target: HIS-tagged EGFR in HEK-293T cells (human) (UniProt P00533); assay: co-IP; HEK-293T cells cotransfected with Flag-tagged MYLK4 and HIS-tagged EGFR, reciprocal; NP40 lysate, Protein G beads overnight at 4 °C; immunoblot
[6] = biological target: His-EGFR (668-1210) (human) (UniProt P00533); assay: pull-down; His-tag pull-down: 10 μg His-EGFR (668-1210) mixed with 10 μg GST-MYLK4 or GST, incubated with Ni-NTA agarose; western blot with anti-GST and anti-His tag; both purified

binding [1]: binds
binding [2]: binds
Molecule: Epidermal growth factor receptor (EGFR), endogenous in 143B cells (from UniProt P00533 25-1210)

binding [6]: binds
B3: GST-MYLK4 (enzyme, UniProt Q86YV6 1-388)
chain: T1 sequence

Further lines, the molecule ahead of its results:

Molecule: HIS-tagged EGFR in HEK-293T cells (from UniProt P00533 25-1210) (receptor)
binding [3]: binds

B1: Myosin light chain kinase family member 4 (MYLK4), endogenous in 143B cells (enzyme, UniProt Q86YV6 1-388)
chain: T1 sequence
binding [4]: binds

B2: Flag-tagged MYLK4 in HEK-293T cells (enzyme, UniProt Q86YV6 1-388)
chain: T1 sequence
binding [5]: binds
